Experimental findings from article PMC11380452 are described below.

By UniProt entry, the sequences of proteins in these tests, tags left out.
UniProt P53804: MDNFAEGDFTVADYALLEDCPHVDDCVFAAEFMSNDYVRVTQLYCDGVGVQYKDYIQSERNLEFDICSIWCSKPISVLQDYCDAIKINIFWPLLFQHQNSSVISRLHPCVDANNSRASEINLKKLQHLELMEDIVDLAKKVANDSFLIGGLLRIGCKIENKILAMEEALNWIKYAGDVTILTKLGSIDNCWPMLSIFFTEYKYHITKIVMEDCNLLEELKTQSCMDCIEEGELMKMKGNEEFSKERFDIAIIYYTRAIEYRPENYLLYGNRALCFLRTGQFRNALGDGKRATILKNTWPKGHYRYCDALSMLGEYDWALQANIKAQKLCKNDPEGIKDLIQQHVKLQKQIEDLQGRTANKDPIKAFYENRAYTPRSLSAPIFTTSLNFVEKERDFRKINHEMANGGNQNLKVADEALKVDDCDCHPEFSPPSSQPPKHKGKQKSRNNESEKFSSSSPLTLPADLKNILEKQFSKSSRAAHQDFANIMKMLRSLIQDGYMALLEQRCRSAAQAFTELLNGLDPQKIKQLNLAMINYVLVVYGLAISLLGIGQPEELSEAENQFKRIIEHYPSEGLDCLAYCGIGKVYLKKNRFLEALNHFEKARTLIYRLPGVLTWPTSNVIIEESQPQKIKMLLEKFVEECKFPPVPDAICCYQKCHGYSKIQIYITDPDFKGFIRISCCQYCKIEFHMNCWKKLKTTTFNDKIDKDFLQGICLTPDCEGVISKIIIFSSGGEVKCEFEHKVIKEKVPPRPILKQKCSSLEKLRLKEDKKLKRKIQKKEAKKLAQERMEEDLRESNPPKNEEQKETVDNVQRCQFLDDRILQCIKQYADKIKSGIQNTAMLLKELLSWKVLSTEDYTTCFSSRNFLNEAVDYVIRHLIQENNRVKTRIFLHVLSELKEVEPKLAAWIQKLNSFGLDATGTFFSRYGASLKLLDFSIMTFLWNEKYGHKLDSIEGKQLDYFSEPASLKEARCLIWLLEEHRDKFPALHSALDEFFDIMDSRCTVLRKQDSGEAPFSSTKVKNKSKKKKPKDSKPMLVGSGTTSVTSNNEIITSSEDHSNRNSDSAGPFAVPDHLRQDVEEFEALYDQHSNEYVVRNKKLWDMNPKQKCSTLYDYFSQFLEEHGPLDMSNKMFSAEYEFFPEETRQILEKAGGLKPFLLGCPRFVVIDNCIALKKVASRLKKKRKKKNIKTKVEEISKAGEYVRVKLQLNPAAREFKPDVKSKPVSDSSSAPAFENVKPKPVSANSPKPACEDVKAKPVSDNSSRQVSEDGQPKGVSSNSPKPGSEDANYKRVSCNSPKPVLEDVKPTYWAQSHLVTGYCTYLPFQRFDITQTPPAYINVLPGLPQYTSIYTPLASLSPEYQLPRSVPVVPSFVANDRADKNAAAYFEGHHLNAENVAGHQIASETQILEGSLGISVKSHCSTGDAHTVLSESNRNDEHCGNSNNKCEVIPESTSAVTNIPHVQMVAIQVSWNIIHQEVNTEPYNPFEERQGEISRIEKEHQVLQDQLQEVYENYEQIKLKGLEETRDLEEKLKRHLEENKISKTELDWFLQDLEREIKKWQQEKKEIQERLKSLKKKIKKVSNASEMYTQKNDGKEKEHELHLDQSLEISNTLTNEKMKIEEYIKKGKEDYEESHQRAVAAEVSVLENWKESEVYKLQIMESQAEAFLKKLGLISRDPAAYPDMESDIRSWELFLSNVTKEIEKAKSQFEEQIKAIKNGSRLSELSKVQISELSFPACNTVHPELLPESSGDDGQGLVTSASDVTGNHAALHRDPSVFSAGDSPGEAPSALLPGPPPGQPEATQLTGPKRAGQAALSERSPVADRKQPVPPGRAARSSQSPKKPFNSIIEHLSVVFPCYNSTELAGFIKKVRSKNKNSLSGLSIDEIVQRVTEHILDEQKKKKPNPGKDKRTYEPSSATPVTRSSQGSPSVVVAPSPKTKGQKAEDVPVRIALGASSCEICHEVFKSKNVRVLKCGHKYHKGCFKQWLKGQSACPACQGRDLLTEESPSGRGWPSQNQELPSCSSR
UniProt P55884: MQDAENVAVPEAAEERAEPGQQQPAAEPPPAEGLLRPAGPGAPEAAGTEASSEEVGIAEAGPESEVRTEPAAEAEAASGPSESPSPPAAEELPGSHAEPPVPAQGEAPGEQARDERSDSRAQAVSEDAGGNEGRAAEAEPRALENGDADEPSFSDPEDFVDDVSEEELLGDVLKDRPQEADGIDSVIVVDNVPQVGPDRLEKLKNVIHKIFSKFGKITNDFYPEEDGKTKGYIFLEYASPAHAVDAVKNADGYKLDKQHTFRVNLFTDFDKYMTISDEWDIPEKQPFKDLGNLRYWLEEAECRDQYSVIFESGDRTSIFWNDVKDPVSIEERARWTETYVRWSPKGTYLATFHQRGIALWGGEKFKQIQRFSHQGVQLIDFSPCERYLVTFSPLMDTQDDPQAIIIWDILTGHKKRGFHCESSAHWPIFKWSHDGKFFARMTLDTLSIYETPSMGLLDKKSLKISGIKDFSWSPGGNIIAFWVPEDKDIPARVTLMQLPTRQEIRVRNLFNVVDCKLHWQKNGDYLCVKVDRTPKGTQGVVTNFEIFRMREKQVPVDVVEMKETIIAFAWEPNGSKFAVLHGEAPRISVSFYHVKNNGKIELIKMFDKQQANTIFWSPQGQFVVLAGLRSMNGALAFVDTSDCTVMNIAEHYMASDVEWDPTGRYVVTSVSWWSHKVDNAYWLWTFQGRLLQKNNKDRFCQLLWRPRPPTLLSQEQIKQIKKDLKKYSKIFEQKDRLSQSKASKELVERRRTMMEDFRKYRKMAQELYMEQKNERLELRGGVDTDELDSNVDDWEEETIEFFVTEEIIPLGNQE

In this assay the target is His-TTC3 (UniProt P53804). Description: co-IP; DU145 (and PC-3) cells transfected with tagged plasmids; lysate, specific antibody, Protein A/G magnetic beads, low pH elution, Western blot. In general terms: Immunoblotting shows a protein as a band on a membrane.

These are yes or no findings as the source states them, for the method shown. In cells and extracts the contact can be indirect. Some binding calls cover weakened binding; strength is not graded here.

With HA-EIF3b (from UniProt P55884 1-814), the binding result was “binds”.
